Laboratory results as given in PubChem BioAssay AID504444 (National Center for Advancing Translational Sciences (NCATS), 2011).
Out of some 360,000 compounds screened, about 7,500 (2.1%) were called active. The inconclusive results got no clear call from the source; some entries with a clear call stand among them for comparison. The call rests on the fitted dose curve; in most records, active means well fitted inhibition curve with a large enough effect; inconclusive means small, poorly fitted or top-dose-only effect, or effect the other way; inactive means flat fitted curve, though single readings scatter. Where the call is inconclusive, the potency comes from a doubtful curve fit.

assay: Nrf2 qHTS screen for inhibitors; details: A549 ARE-Fluc reporter, luciferase luminescence, 18-24 h; series mostly up to 46 µM; further: nearly all actives have a fitted effect of over 60% in size
Summary of the method: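 Reporter: ARE-Fluc in A549. Exposure: 18-24 h, 37 °C, 5% CO2, 5% FBS OPTI-MEM. Readouts: fluorescent cytotoxicity (CellTiter-Fluor), then luminescent Nrf2 signal after BugLite.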
Potency means the concentration at half of the fitted maximal effect.

Structure (SMILES) | Potency
COc1ccc(-n2c(=S)[nH]c3cc(C(=O)Nc4ccc(F)cc4)ccc3c2=O)c(OC)c1 | active: 20.6 µM
Cc1ccc(C(=O)N/C(=C\c2cccs2)C(=O)NCCc2c[nH]c3ccccc23)cc1 | inconclusive: 25.9 µM [activator, partial curve]
COc1cc(/C=C/C(=O)OCC(=O)Nc2ccc(C)c(S(=O)(=O)N3CCCCC3)c2)ccc1O | inconclusive: 32.6 µM [falling, partial curve, poor fit]
c1ccc2c(NCC3CCCO3)nc(N3CCCCC3)nc2c1 (configuration not stated) | inconclusive: 8.2 µM [falling, partial curve, poor fit]
c1nc(CCO[C@H]2CCCCO2)cc2cc3c(cc12)OCO3 | inconclusive: 29.1 µM [falling, single point]
C=CC(=O)N1C/C(=C/c2ccc(Cl)cc2)C(=O)/C(=C\c2ccc(Cl)cc2)C1 | inconclusive: 18.4 µM [falling, single point]
Cc1cc(N2CCN(c3ccccc3)CC2)n2cnnc2n1 | inconclusive: 20.6 µM [falling, single point]
COc1ccc(CCNC(=O)c2ccc(Cn3c(=O)c4ccccc4n(Cc4ccc(F)cc4Cl)c3=O)cc2)cc1OC | inactive
CCOC(=O)c1ccc(CNC(=O)C2CCC(=O)N(CCc3ccccc3)C2)o1 (configuration not stated) | inconclusive: 7.31 µM [falling, partial curve, poor fit]
CCc1nnc(NC(=O)CSc2nnc(-c3ccccc3NC(=O)c3ccccc3)o2)s1 | inconclusive: 4.11 µM [falling, partial curve, poor fit]
COc1cc(SC)ccc1C(=O)N1CCN(c2ccc(O)cc2)CC1 | inconclusive: 11.6 µM [falling, partial curve, poor fit]
CC1=C(C(=O)OCC2CCCCC2)C(c2ccccc2F)NC(=O)N1 (configuration not stated) | inconclusive: 18.4 µM [falling, single point]
CCOCCc1nnc(NC(=O)CCc2ccccc2)s1 | inactive
CC(C)c1ccc(NC(=O)c2ccc3snnc3c2)cc1 | inconclusive: 1.16 µM [activator, full curve]
CCC(=O)N1c2ccccc2NC2=C(C(=O)CC(C)(C)C2)C1c1ccc(O)c(OC)c1 (configuration not stated) | inactive
COC(=O)c1ccc(NC(=S)NCCc2cccc(C)c2)cc1 | inconclusive: 18.4 µM [falling, single point]
O=C(N1CCCC1)C12CC3CCC(CC(C3)C1)C2 | inconclusive: 18.4 µM [falling, single point]
COc1ccc(-c2c[n+]3c4n2CCCCC4=C(c2ccc(Br)cc2)C3)cc1 | inconclusive: 29.1 µM [falling, single point]
Cc1cccc2c(C(=O)N3CCN(c4ccccn4)CC3)cc(-c3cccc(Br)c3)nc12 | inconclusive: 29.1 µM [falling, single point]
Cc1cccc(C)c1NC(=O)CCCSc1nnc(-c2ccc(F)cc2)n1-c1ccccc1 | inconclusive: 29.1 µM [falling, single point]
C[C@H]1CN=C2N(CCNC(=O)CCC3CCCCC3)[C@H](Cc3ccc(O)cc3)CN21 | inactive

A draw from above in order of heavy-atom count, smallest number first.
Structure (SMILES) | Potency
CC(C)c1ccc(NC(=O)c2ccc3snnc3c2)cc1 | inconclusive: 1.16 µM [activator, full curve]
c1ccc2c(NCC3CCCO3)nc(N3CCCCC3)nc2c1 (configuration not stated) | inconclusive: 8.2 µM [falling, partial curve, poor fit]
C=CC(=O)N1C/C(=C/c2ccc(Cl)cc2)C(=O)/C(=C\c2ccc(Cl)cc2)C1 | inconclusive: 18.4 µM [falling, single point]

Following part.

Structure (SMILES) | Potency
CC(=O)N1CCSc2ccc(S(=O)(=O)NCCc3cccc(C)c3)cc21 | inconclusive: 14.6 µM [falling, single point]
O=C(CCSc1nnc(-c2ccncc2)o1)Nc1ccc(Cl)cc1 | inactive
CCOC(=O)C1CCCN(c2ncnc3c2oc2ccccc23)C1 (configuration not stated) | inactive
COc1ccc(OC)c(S(=O)(=O)Nc2cc3c4c(c2)CCC(=O)N4CCC3)c1 | inconclusive: 25.9 µM [falling, partial curve, poor fit]
Cc1cc(=O)oc2cc(OC(C)C(=O)NC3(C#N)CCCCC3)ccc12 (configuration not stated) | inactive
CCCSC1=C(C#N)C(c2cccnc2)C(C(=O)OCC)=C(c2ccccc2)N1 (configuration not stated) | inactive
NC1=NC[C@H](Cc2ccc(O)cc2)N1CCc1cc(C(F)(F)F)cc(C(F)(F)F)c1 | inactive
COc1ccc(NC(=O)c2ccccc2C(=O)N2CCCCC2)cc1 | inconclusive: 11.6 µM [activator, partial curve]
O=C(CCN1C(=O)c2cccc3cccc(c23)C1=O)NCC1CCCO1 (configuration not stated) | inconclusive: 0.517 µM [falling, full curve, poor fit]
N#C/C(=C\c1ccc(OCc2ccc(F)cc2)cc1)C(=O)Nc1cccc(C(=O)O)c1 | inactive
COc1cccc(NC(=O)CS(=O)(=O)Cc2nc(-c3ccc(C)cc3)oc2C)c1 | active: 25.9 µM
Cc1ccc(N(CC(=O)Nc2ccc3c(c2)OCCO3)S(C)(=O)=O)cc1 | inconclusive: 23.1 µM [activator, single point]
COc1ccc2c(c1)CCN=C2Cc1ccc(OC)c(OC)c1 | inconclusive: 8.2 µM [falling, partial curve, poor fit]
COc1cccc(-c2cn3c(n2)sc2cc(C(=O)NCc4ccccc4F)ccc23)c1 | inconclusive: 5.8 µM [activator, partial curve]
COc1cc(NC(=O)c2cc(C)on2)cc(C(=O)Nc2cccc(C(F)(F)F)c2)c1 | inconclusive: 16.4 µM [falling, single point]
O=C(O)c1cc(N/N=C/c2ccc3c(c2)OCCO3)ccc1Cl | inconclusive: 8.2 µM [activator, partial curve]
CCn1cc(C(=O)NCc2ccco2)c(=O)c2cc(S(=O)(=O)N3CCCCCC3)ccc21 | inconclusive: 2.91 µM [falling, partial curve]
Cc1ccc2nc(-c3cccc(NC(=O)c4cccc5c(Cl)cccc45)c3)oc2c1 | inconclusive: 29.1 µM [activator, single point]
CCOC(=O)c1c(C)oc2nc(C)nc(NCC3CCN(Cc4ccccc4C)CC3)c12 | inconclusive: 23.1 µM [activator, single point]
CC1CN(S(=O)(=O)c2cc(C(=O)N3CCCCC3C)ccc2Cl)CC(C)O1 (configuration not stated) | inconclusive: 16.4 µM [falling, partial curve, poor fit]
O=C(Nc1nnc(-c2ccco2)o1)c1ccc(Cl)cc1 | inconclusive: 20.6 µM [falling, single point]
